A short description of the assay: qHTS Assay to Find Inhibitors of Chronic Active B-Cell Receptor Signaling. The following applies: ABC-DLBCL IkBa-CBG/CBR reporter, luminescence ratio (green luciferase fused to IkBa over red control in TMD8 lymphoma cells), 4 h. The procedure, abridged: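 Cell line TMD8 (human ABC DLBCL), stably expressing tet-inducible CBG68-IkBa fusion and CBR; IMDM/0.5% FBS; cpd up to 46 uM; dox induction, 4 h, 37C/5% CO2; dual luminescence; green/red ratio; MG132 control.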
A general note: In qHTS, concentration-response curves come from the screen itself.

Where [1] appears, read: measured here: CBR red luminescence, cell number.
The mark [2] stands for this setting: measured here: IkBa-CBG green luminescence.

SMILES strings stand for the structures. The list shows a part of the results. Further columns of the screen follow, without active or inactive calls. The list favours compounds with an active or inconclusive main result. The note in brackets gives the kind of curve behind each potency; many fits are weak.

The record followed here is PubChem BioAssay AID493014 (National Center for Advancing Translational Sciences (NCATS), 2011).

For orientation: AC50 means the concentration giving half of the maximal activity seen. In the case of `CCC1(C)Cc2c(sc3nc(SCC(=O)c4ccccc4)[nH]c(=O)c23)CO1` (centres undefined), the AC50 under setting [1] is 0.398 µM [falling, full curve, poor fit]. Same read-out and setting: next, `CCOC(=O)c1ccc2c(c1)nc(-c1ccccn1)n2CC`: 20 µM [rising, single point]. Still for that read-out and setting: next, `COc1ccc(OC)c(C(=O)/C=C/c2ccccc2C(F)(F)F)c1`: 11.2 µM [falling, single point].

Take `COc1cccc(C(=O)N/N=C/c2ccc(Oc3ccc([N+](=O)[O-])cn3)c(OC)c2)c1`: under setting [1], the AC50 is 6.51 µM [falling, partial curve].

For `O=C(COc1ccccc1-c1ccccc1)N/N=C/c1ccccn1`, the concentration at half-maximal activity (AC50) by setting is: under setting [1], 35.5 µM [rising, single point]; under setting [2], 35.5 µM [falling, single point].

As to `CCOc1ccc2nc(NC(=O)C(CC)Sc3nc(C)cc(=O)[nH]3)sc2c1` (centres undefined), the half-maximal activity concentration (AC50) under setting [1] is 1.16 µM [rising, full curve, poor fit]. For `COCC(=O)n1cc(C(=O)OC)c2ccccc21`, the AC50 under setting [1] was 29.1 µM [rising, single point]. Same read-out and setting: under `COc1ccc(N=C2C(=Nc3ccc(OC)cc3)N(c3ccccc3)C(=S)N2C(=O)c2ccc(Cl)cc2)cc1` stands 29.1 µM [falling, single point]. Still for that read-out and setting: under `CCCc1ccc(-c2cc(NC(=O)CSc3nnc(N)s3)n(-c3ccccc3)n2)cc1` stands 5.8 µM [rising, partial curve, poor fit]. With `Fc1ccc(C(c2nnnn2C2CCCCC2)N2CCCC2)cc1` (centres undefined), the concentration at half-maximal activity (AC50) under setting [1] is 20 µM [falling, partial curve, poor fit].

For the molecule `COc1cc(OC)cc(C(=O)N[C@H](C(=O)OCC(=O)Nc2ccc(C)cc2C)C(C)C)c1`, the half-maximal activity concentration (AC50) under setting [1] is 6.51 µM [rising, single point]. The same measure, in the same setting: next, `Cc1nc(N2CCN(c3ccccc3)CC2)[nH]c(=O)c1Cc1cccc2ccccc12`: 25.1 µM [rising, single point]; `COc1ccc(CNC(=O)CSC(=S)N2CCCC2)cc1`: 2.91 µM [falling, full curve, poor fit]; `COc1ccccc1CC(=O)Nc1ccc(-c2noc(COc3cccc(C)c3C)n2)cc1`: 5.8 µM [falling, partial curve, poor fit]. The same measure, in the same setting: next, `CCN(C(=O)COC(=O)c1cccnc1SC)C1CCS(=O)(=O)C1` (centres undefined): 14.6 µM [falling, partial curve, poor fit]; `CN(C)C(=O)c1ccc2c(c1[N+](=O)[O-])C(=O)c1ccccc1C2=O`: 0.13 µM [rising, full curve, poor fit]; `CCC(=O)N1CCc2cc(S(=O)(=O)Nc3ccc4c(c3)OCCO4)ccc21`: 0.58 µM [falling, partial curve, poor fit]. As for `N#Cc1c(NC(=O)CSc2ncn[nH]2)sc2c1CCCC2`, the AC50 under setting [2] is 9.2 µM [falling, partial curve, poor fit]. On to `Cc1nn(-c2ccccc2)c2c1C1(C(=O)N(C)c3ccccc31)N(c1ccccc1)C(=O)N2` (centres undefined), for which the AC50 under setting [1] was 14.1 µM [falling, partial curve]. Still for that read-out and setting: next, `CCCCCCC(=O)NNC(=O)CC(=O)Nc1ccccc1C(=O)O`: 3.26 µM [rising, partial curve, poor fit]; `Cc1cc(C)cc(NS(=O)(=O)c2ccc3[nH]cc(C(=O)NCc4ccccc4Cl)c(=O)c3c2)c1`: 11.2 µM [falling, partial curve, poor fit]. The same measure, in the same setting: next, `CC(C)(c1ccccc1)c1ccc(OCCCN2CCNCC2)cc1`: 35.5 µM [falling, single point]. Turning to `COc1ccc(-c2nc(S(=O)(=O)c3ccc(C)cc3)c(N3CCCC3)o2)cc1`, the AC50 under setting [1] was 0.651 µM [falling, full curve, poor fit]. For `Cc1ccc(C(F)(F)F)cc1NC(N)=S`, under setting [1], the half-maximal activity concentration (AC50) is 0.891 µM [rising, full curve, poor fit].

Turning to `C/C(=C\c1ccccc1)C(=O)Nc1nc2ccc([N+](=O)[O-])cc2s1`, the half-maximal activity concentration (AC50) under setting [1] is 0.92 µM [rising, full curve, poor fit]. The same measure, in the same setting: under `COc1ccc(CNC(=O)CN(C(=O)CCC(=O)Nc2ccccn2)c2cccc(C)c2C)cc1` stands 10 µM [falling, partial curve]. For the molecule `Cc1ccc(/C=C2/NC(=O)N(Cc3ccccc3F)C2=O)s1`, under setting [2], the concentration at half-maximal activity (AC50) is 1.12 µM [rising, full curve, poor fit]. As for `COc1ccc(NC(=S)NN2C(C)CCCC2C)cc1` (centres undefined), the half-maximal activity concentration (AC50) under setting [1] is 0.00411 µM [falling, full curve, poor fit]. Still for that read-out and setting: next, `COC(=O)C(Cc1ccc(OC(=O)c2ccccc2C)cc1)N1Cc2ccccc2C1=O` (centres undefined): 29.1 µM [falling, single point]. Same read-out and setting: next, `O=C(O)/C=C\C(=O)Nc1ccccc1C(=O)N1CCN(c2ccc(Cl)cc2)CC1`: 10.3 µM [falling, partial curve, poor fit].

Take `CCOCCCNC(=S)NNC(=O)CCn1nc(C)c(Br)c1C`: the AC50 is 32.6 µM [falling, single point] under setting [1] and 29.1 µM [falling, single point] under setting [2]. In the case of `Cc1cc(C(=O)COC(=O)CCCN2C(=O)c3ccccc3C2=O)c(C)n1C`, the concentration at half-maximal activity (AC50) under setting [1] was 11.2 µM [rising, partial curve, poor fit]. The same measure, in the same setting: next, `O=C(c1cccs1)n1nc(-c2ccco2)nc1SCc1ccccc1`: 29.1 µM [falling, single point]; `Cc1cnc(C(=O)Nc2ccc(F)cc2)cn1`: 5.01 µM [falling, partial curve, poor fit]. The same measure, in the same setting: next, `O=C(O)c1ccc(-c2nc(-c3ccccc3)c(-c3cccs3)[nH]2)cc1`: 5.62 µM [falling, partial curve, poor fit]; `CCOc1cc2c(cc1/C=C(/C#N)c1ccc(C(=O)O)cc1)OCO2`: 11.2 µM [falling, single point]. On to `CC(=O)Nc1ccc(S(=O)(=O)N2CCCCC2C(=O)O)cc1` (centres undefined), for which the AC50 under setting [1] was 14.1 µM [rising, partial curve, poor fit]. The same measure, in the same setting: under `CC(C)(C)c1ccc(-c2noc(CNC(=O)c3ccco3)n2)cc1` stands 8.91 µM [rising, partial curve, poor fit]; under `O=C(Nc1cccc(NC(=O)c2cccs2)c1)c1ccc(Br)o1`, 7.08 µM [falling, full curve, poor fit]; under `COc1ccc(NC(=S)N/C(=N/CS(=O)(=O)c2ccccc2)c2ccccc2)cc1`, 29.1 µM [falling, single point]. The same measure, in the same setting: under `CSc1nc2ccc(NC(=O)c3ccc(=O)[nH]c3)cc2s1` stands 3.98 µM [rising, full curve]; under `O=C1CSC2(C(=O)N(Cc3ccccc3)c3ccccc32)N1c1ccc(Cl)cc1` (centres undefined), 11.2 µM [falling, partial curve, poor fit]. Same read-out and setting: under `CCOc1cc(S(=O)(=O)N(CC)CC)ccc1Br` stands 18.4 µM [rising, single point]. On to `Cc1cccn2cc(-c3cccc(S(=O)(=O)N4CCOCC4)c3)nc12`, for which the AC50 under setting [1] was 11.2 µM [rising, partial curve, poor fit]. On the same count and under the same terms, next, `O=C1N/C(=N/S(=O)(=O)Cc2ccccc2)S/C1=C/c1ccc2c(c1)OCO2`: 8.91 µM [falling, partial curve].

With `COc1cccc(CNC(=O)C(=O)NCC2CCCO2)c1` (centres undefined), the AC50 under setting [1] is 11.6 µM [falling, partial curve].

As to `Cc1cccc(-c2nsc(SCC(=O)N3CCCC3)n2)c1`, the AC50 under setting [1] is 0.1 µM [rising, full curve, poor fit].

As for `NS(=O)(=O)c1ccc(CCNC(c2ccccc2)c2ccccc2)cc1`, the AC50 under setting [1] is 7.94 µM [falling, partial curve, poor fit]. Consider `COc1cc(OC)c(NC(=O)CN(C)S(=O)(=O)c2ccc3[nH]c(=O)oc3c2)cc1Cl`, for which the AC50 under setting [1] was 7.94 µM [rising, partial curve, poor fit]. Same read-out and setting: under `CSCCC(NC(=O)c1ccccc1)C(=O)N1CC(C)OC(C)C1` (centres undefined) stands 20.6 µM [rising, single point]. On the same count and under the same terms, under `C[C@@]12CCC=C[C@H]1[C@H](c1ccc3ccccc3c1/C=C/c1ccccc1)N(Cc1ccccc1)C2=O` stands 0.0891 µM [rising, full curve, poor fit]; under `CC(C)(C)NC(=O)/C=C/c1ccc(C(F)(F)F)cc1`, 16.4 µM [rising, partial curve]; under `CN1/C(=C/C(=O)c2nc(S(C)(=O)=O)ncc2Cl)C(C)(C)c2ccccc21`, 20 µM [falling, partial curve, poor fit]. As for `N#C/C(=C(/O)CSc1ccccn1)c1nc2ccccc2s1`, the AC50 under setting [1] is 2.24 µM [falling, partial curve]. Take `COc1cc(C(=O)OCCNC(=O)c2ccncc2)cc(OC)c1OC`: the AC50 under setting [1] was 4.61 µM [rising, single point].

`Cc1cccc(N2C(=O)CC(Sc3nnc(C)s3)C2=O)c1` (centres undefined): under setting [1], the half-maximal activity concentration (AC50) is 18.4 µM [falling, single point].

As for `O=C(C(Cc1ccccc1)n1cccc1)N1CCN(c2ccccc2)CC1` (centres undefined), the half-maximal activity concentration (AC50) under setting [1] was 32.6 µM [falling, single point]. Still for that read-out and setting: next, `CCCOc1ccc(-c2nnc(-c3ccncc3)o2)cc1`: 17.8 µM [rising, partial curve, poor fit]; `CC(=O)c1ccc(-n2nnnc2SCC(=O)Nc2cccc(NC(=O)c3ccco3)c2)cc1`: 1.12 µM [falling, full curve, poor fit]. The same measure, in the same setting: next, `CCCCCCCCOC(=O)c1ccc(N)cc1`: 5.8 µM [rising, full curve, poor fit]. For the molecule `Cc1ccc(C(=O)N/C(=C\c2ccc3c(c2)OCO3)C(=O)Nc2ccc(C(=O)O)cc2)cc1`, the concentration at half-maximal activity (AC50) under setting [2] was 20 µM [rising, partial curve, poor fit]. On to `S=c1[nH]nc(Cc2ccccc2)n1-c1ccc(Cl)cc1`, for which the concentration at half-maximal activity (AC50) under setting [1] is 0.398 µM [rising, full curve, poor fit].
